# The whole screen tested about 31,000 sequences, of which about 1,400 (4.5%) were called active.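 How the source made its calls: active means median seed-adjusted z-score above 1 or below -1; inactive means the rest.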 Some of the results follow.
# Assay: Novel Modifiers of Survival Motor Neuron (SMN) Protein: Gene Identification via Genome-wide siRNA Screen;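 further: luminescence tracks full-length SMN protein made from the SMN2 reporter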
# Conditions: HEK293T SMN2-luciferase reporter, siRNA knockdown, 72 h; actives lie on both sides
# In short: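 HEK293T cells stably expressing an SMN2 splicing/cDNA-luciferase reporter were reverse-transfected with a druggable-genome siRNA library and read by luminescence at 72 hours; hits defined by MAD score above 1.0 or below -1.0.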
row,Sequence,median seed-adjusted z-score
1,CUAAGAAACUCCAAUUUUATT against JAK3,inactive: -0.0926
2,GGAUAGAGGUUCGUUUGAATT against PRKG1,inactive: 0
3,GCCGACAUUUGGACACAGATT against HSPB2,inactive: 0.247
4,GGAUGAGAAGGAUAAUGAUTT against IRF6,active: -1.79
5,UGAGCUACAUAAAUUCCUATT against RAB22A,inactive: 0.321
6,CAACCACACUGUUGCUUUUTT against PLXNB2,inactive: -0.237
7,GAAACUCCGAGCGAUUUAATT against SHH,inactive: -0.517
8,CGCUAUCCAUUAAACAUCATT against RRH,inactive: -0.0112
9,CCUCAACCCUAAAUGGACATT against ZNF91,inactive: 0.105
10,CGAUGGACUAAGUAAUAUATT against KPNA4,inactive: 0.457
11,GAAUCUCGGCUUUAUGGAATT against SLC25A17,inactive: 0.0311
12,UGUAAUUUAUUGUUGCGUUTT against FZD9,inactive: -0.0532
13,AAAUCUCAAUGGUCGCUAUTT against FCN3,inactive: -0.112
14,CUAGACUUCUUACAAGACATT against PIP5K1A,inactive: 0.0924
15,CCCUAUCAGUUACUACUAATT against PDE6H,inactive: -0.0647
16,GGAAGAUGGUUGGGUGAAATT against PSMB8,inactive: 0
17,CUGUUACACCAGUAUCUGATT against KLF10,inactive: 0.616
18,UGUUCAGCAUAGUUGUUUUTT against SLC12A9,inactive: -0.0853
19,GCUUCAACGAGGACUUCAATT against P2RY2,inactive: 0.119
20,GAAUUCGCGUUUUCCGAUATT against PCDHA1,inactive: -0.013
21,GGAUUUCUGGGAAUAAUGUTT against TRIM35,inactive: -0.0463
22,CAAAGUUGGAUGAAGCUAATT against TNFAIP3,inactive: 0.11

row,Sequence,median seed-adjusted z-score
1,CAUCCAAGCUGCUACAGAATT against ATP1A1,inactive: 0.271
2,GCCUGACUGUAACACCCAATT against TXN2,inactive: 0.87
3,AGGCUGGAUUGAUCUCCAATT against CBFB,inactive: -0.0379
4,GGGCAUUAUAAACAAUCUATT against C4BPA,inactive: 0.309
5,GGAGUAUGGUUGCUGUGGATT against TXNRD3,inactive: 0.69
6,GGAGAUUUGUCUACCAUGATT against GTF2B,inactive: -0.855
7,CGUCUAUACUUACAAGCUUTT against SF3B3,active: -2.53
8,GGACCUCCCUUCAACAUCATT against DYSF,inactive: -0.23
9,GAGCUAUGCUGUUAGGGUUTT against PRSS12,inactive: 0.119
10,CCCUAAAUAUUUGUAAGUUTT against THOC3,inactive: 0.689
11,GGCUAGACCUCACUACUAATT against FOXP2,inactive: 0.222
12,CAUCACCUAUUGGAUCCAATT against MMP9,active: -1.15
13,CCAUAAACGUGCUUUGAGATT against TIMM13,inactive: -0.422
14,GAGGCAGACAAAAACCUUUTT against CRTC1,inactive: 0.00363
15,GCCUCAAUCUCUACUCGAATT against PCDHGA2,inactive: -0.8
16,GAACCAUUCUGAGCGAGUUTT against F10,inactive: -0.0033
17,GGACAAUAACGUAGAGGAATT against MMP17,inactive: -0.653
18,GUCCGUGUCUUCUUCAAAATT against EPHB1,inactive: -0.0232
19,UGACAUCCGUGACCUCUAATT against LHX9,inactive: 0.157
20,CAGUGUAUCUGCAUUAGAATT against NOX4,inactive: -0.246
21,GAUUCUAGGAUAAGCACUATT against KLK8,inactive: 0.736
22,GAAGCGGAGUUUUACAACATT against KCTD2,inactive: 0.133

# Shown as tab-separated lines: entries from further up.
row	Sequence	median seed-adjusted z-score
17	CUGUUACACCAGUAUCUGATT against KLF10	inactive: 0.616
22	CAAAGUUGGAUGAAGCUAATT against TNFAIP3	inactive: 0.11
21	GAUUCUAGGAUAAGCACUATT against KLK8	inactive: 0.736

# The results go on:

row,Sequence,median seed-adjusted z-score
1,GCAAAGAGAUUUUCAACAATT against EXOSC5,inactive: 0.109
2,GCCGGAUGAGAUUUCCAUATT against ITPA,inactive: 0.616
3,GCACUUUUCGAGGAGGAGATT against SLC12A7,inactive: -0.0309
4,ACUUCUACAUCAACGACAATT against ALDH4A1,inactive: 0.0362
5,AGAUAGAUGUGGUACCCAUTT against IL1RN,inactive: 0.283
6,CUAUCCAUAUGAACUAUGATT against SLC30A4,inactive: 0.158
7,GACUUUUCAGAGUCUUUCATT against NYX,inactive: 0.0685
8,GGUUGAAGCUUAUUGCAGATT against HARS2,inactive: 0
9,GGAAUUAUGGAAAAACUCUTT against NHLH1,inactive: -0.0084
10,GGCAGAUGAUGGUAUCACATT against CNGA4,inactive: 0.125
11,CAGUCAAGCAGUCAACAAATT against MAP1D,inactive: 0.155
12,GCGUCUCACUCAUUGCGUUTT against BAZ2B,inactive: -0.679
13,AGAAGAACGACGACCAAAATT against COMP,inactive: 0.331
14,CAAGUGUCACAUUCGCAAATT against GALR1,inactive: -0.721
15,GGAAAUUCAGGUACGGAUATT against ADAMTS4,inactive: -0.0153
16,CAGUUAUUCUCUCUCCAUATT against SDHC,inactive: 0.00895
17,GCACAGACCUGGUGUGGAATT against NECAB2,inactive: -0.286
18,UGGUGGAAAUUUCCCUUUATT against CDH16,inactive: -0.209
19,AACUCGUGUUGUUGAAAAATT against GATAD2A,inactive: -0.715
20,CAAUAUUCAGUAACCAAGUTT against ESM1,inactive: 0.141
21,AGGAGUCACUGCACAUUAATT against ZNF205,inactive: -0.468
22,GAAUCUGCCUGAUAAUCGATT against CFLAR,inactive: -0.413

row,Sequence,median seed-adjusted z-score
1,GACUAUUCCCUGCACCACATT against ABHD9,inactive: 0.486
2,GCUUCCCGGUUCAUCAUUATT against SOAT1,inactive: 0.409
3,GAGAGACCAUAUACUCAUATT against ZNF559,inactive: -0.0208
4,GAAAAGGGAUAACUACGAATT against HIVEP3,inactive: 0.516
5,CCGGUUGAGUGGGAGAGAATT against ASMTL,inactive: -0.0375
6,CAUUCGCUGUGGAGAGGAATT against TPST1,inactive: -0.00547
7,CCUCAAUACUCCGCAAAUATT against NMNAT2,active: -1.58
8,CCCACAAACUUUGUGCAUATT against CDC42SE2,inactive: 0.381
9,GCUUGUUAAGAAAGAGUUUTT against GZMA,inactive: -0.234
10,GGAUUUGACCUGUACUUCATT against ANTXR1,inactive: -0.0849
11,AGGCGAUCCUGUCUCCAAATT against RPUSD1,inactive: 0.327
12,GGUUAUUCGCUCUAUAGGATT against FLJ12529,inactive: 0.852
13,GUCUAUGUCAAGUUCCGGATT against U2AF1L4,inactive: 0
14,GGACCAUAACUCUUACGUATT against RBM26,inactive: -0.967
15,GGAUGAGGUCUUCACCAAATT against NENF,inactive: -0.778
16,CGGCCUUCUCGAUUCCUUUTT against SAFB2,inactive: 0.0394
17,CUGGAUGAGGUGUACCUUATT against XPNPEP1,active: -1.5
18,GAAAUACAAGGAAUCUGAATT against TMTC4,active: -1.16
19,GCUGUACACCCUCAACAAATT against MTG1,inactive: -0.19
20,CGAAUCUCAUGUUCAGGAATT against LPA,inactive: -0.321
21,GGUGGUGCUUUAUACUGGATT against AS3MT,inactive: -0.74
22,CCACGUUUUGAUCAACAAUTT against RDH11,inactive: -0.241

# Part of the list above, reformatted.
row	Sequence	median seed-adjusted z-score
15	GGAUGAGGUCUUCACCAAATT against NENF	inactive: -0.778
16	CGGCCUUCUCGAUUCCUUUTT against SAFB2	inactive: 0.0394
17	CUGGAUGAGGUGUACCUUATT against XPNPEP1	active: -1.5

# (next part)

row,Sequence,median seed-adjusted z-score
1,ACAUGUGGGUGACGGUUUUTT against SRM,inactive: 0
2,CGCUAUCGCUACAUCAUGATT against TRPM6,inactive: -0.0375
3,GAGUGGGCGUGGAUAGAAATT against PSMC2,active: -1.96
4,GGAGGUGACAAGCCGCAUATT against NOS3,inactive: 0.212
5,AGACCAUCGCCUACGGUUATT against SARDH,inactive: -0.195
6,AGUGCAAAAACGUGCUGAATT against AURKAIP1,inactive: 0.067
7,GCCGAAUUCCGGAUCUACATT against BMP7,inactive: -0.893
8,ACAUGGAGCUGUACCGACUTT against NTN3,inactive: 0.298
9,GGUUCAUACAGACUCUUAUTT against PJA2,inactive: 0
10,GGAUUUGCUCUCUAUAGAATT against RHBDL2,inactive: 0.0701
11,GGCCUUACCAAUCAUCAUUTT against SLC28A2,inactive: -0.076
12,CACUGACACUUACAAUGAATT against UGT3A1,inactive: 0.864
13,GCACCUUAUGAGUGGAAGATT against GGH,inactive: -0.105
14,UAAUUCAGAUCAAAGGUAATT against ZNF600,inactive: 0.252
15,CACAGAUUCUGUUACAACUTT against SERPINA11,inactive: -0.0879
16,GCUCAGAUAUUGCUGUUGATT against FMO2,inactive: -0.265
17,GUUCCAUUAUCAAACCCGATT against UBE3B,inactive: 0.0972
18,GCCUAUGAUUUAGGACUAATT against MNDA,inactive: 0.232
19,CCAAGGUUCAAGAUUAAUATT against SNW1,inactive: 0.148
